Values from PubChem BioAssay AID652243 (Drosophila RNAi Screening Center, 2013)

Aim: 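Fly genes required for human androgen receptor driven transcription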 (primary screen)
Cell system: Drosophila S2R+ cells
Reagents: long dsRNA against Drosophila genes
Duration: 72 h (48 h, then 24 h hormone)
Conditions: synthetic androgen R1881 at 10 nM for 24 h
Measurement: 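Firefly light from an androgen-responsive reporter and Renilla control light per well, raw and unnormalised, for each of two replicates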
Direction: firefly reporter light: higher = more light from androgen-responsive reporter; Renilla control light: higher = more constitutive control signal (cell number, transfection)
Hit rule: 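Hit when the log firefly-to-Renilla ratio dropped or increased by a fixed fold versus the mean of GFP or LacZ controls across duplicate plates; lowering cut given as 1.5 and as 3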
Meaning of the calls: active = hit: reporter lowered or raised; inactive = no hit
The deposit covers about 24,000 reagents; this is a random part of those with a known target gene and a result. Over the whole deposit, 246 (1%) got an active call. 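Plates not normalised; calls are printed but the firefly/Renilla ratio behind them is not deposited; fold cut for lowering reported inconsistently.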 Raw values are not corrected between plates. The record does not give: the amount of reagent.

{"gene":"Pp1-87B (Protein phosphatase 1 at 87B)","dsRNA":"DRSC16794","firefly reporter light, replicate 1":1.48e5,"firefly reporter light, replicate 2":2.05e5,"Renilla control light, replicate 1":8.06e5,"Renilla control light, replicate 2":9.17e5,"Outcome":"inactive"}
{"gene":"Pp1-87B (Protein phosphatase 1 at 87B)","dsRNA":"DRSC23299","firefly reporter light, replicate 1":7.56e5,"firefly reporter light, replicate 2":9.42e5,"Renilla control light, replicate 1":1.26e6,"Renilla control light, replicate 2":1.64e6,"Outcome":"inactive"}
{"gene":"Pp1-87B (Protein phosphatase 1 at 87B)","dsRNA":"DRSC27290","firefly reporter light, replicate 1":6.16e5,"firefly reporter light, replicate 2":5.42e5,"Renilla control light, replicate 1":7.40e5,"Renilla control light, replicate 2":7.78e5,"Outcome":"inactive"}
{"gene":"CG1602","dsRNA":"DRSC06601","firefly reporter light, replicate 1":2.50e5,"firefly reporter light, replicate 2":2.88e5,"Renilla control light, replicate 1":1.50e6,"Renilla control light, replicate 2":9.51e5,"Outcome":"inactive"}

Next part; the last 2 above are carried over.
{"gene":"Pp1-87B (Protein phosphatase 1 at 87B)","dsRNA":"DRSC27290","firefly reporter light, replicate 1":6.16e5,"firefly reporter light, replicate 2":5.42e5,"Renilla control light, replicate 1":7.40e5,"Renilla control light, replicate 2":7.78e5,"Outcome":"inactive"}
{"gene":"CG1602","dsRNA":"DRSC06601","firefly reporter light, replicate 1":2.50e5,"firefly reporter light, replicate 2":2.88e5,"Renilla control light, replicate 1":1.50e6,"Renilla control light, replicate 2":9.51e5,"Outcome":"inactive"}
{"gene":"PsGEF (Protostome-specific GEF)","dsRNA":"DRSC18596","firefly reporter light, replicate 1":2.12e5,"firefly reporter light, replicate 2":1.43e5,"Renilla control light, replicate 1":3.24e6,"Renilla control light, replicate 2":2.46e6,"Outcome":"inactive"}
{"gene":"PsGEF (Protostome-specific GEF)","dsRNA":"DRSC18600","firefly reporter light, replicate 1":2.66e5,"firefly reporter light, replicate 2":2.06e5,"Renilla control light, replicate 1":3.52e6,"Renilla control light, replicate 2":3.28e6,"Outcome":"inactive"}
{"gene":"PsGEF (Protostome-specific GEF)","dsRNA":"DRSC27549","firefly reporter light, replicate 1":2.53e5,"firefly reporter light, replicate 2":2.60e5,"Renilla control light, replicate 1":1.51e5,"Renilla control light, replicate 2":2.80e5,"Outcome":"inactive"}
{"gene":"CG33920","dsRNA":"DRSC37813","firefly reporter light, replicate 1":9.02e5,"firefly reporter light, replicate 2":8.65e5,"Renilla control light, replicate 1":1.47e6,"Renilla control light, replicate 2":2.06e6,"Outcome":"inactive"}
{"gene":"CG18666","dsRNA":"DRSC02694","firefly reporter light, replicate 1":3.07e5,"firefly reporter light, replicate 2":2.55e5,"Renilla control light, replicate 1":1.78e6,"Renilla control light, replicate 2":2.20e6,"Outcome":"inactive"}
{"gene":"COX5A (Cytochrome c oxidase subunit 5A)","dsRNA":"DRSC16611","firefly reporter light, replicate 1":1.82e5,"firefly reporter light, replicate 2":1.61e5,"Renilla control light, replicate 1":2.67e6,"Renilla control light, replicate 2":2.06e6,"Outcome":"inactive"}
{"gene":"CG13998","dsRNA":"DRSC02330","firefly reporter light, replicate 1":1.76e5,"firefly reporter light, replicate 2":3.34e5,"Renilla control light, replicate 1":9.93e5,"Renilla control light, replicate 2":1.49e6,"Outcome":"inactive"}
{"gene":"CG4907","dsRNA":"DRSC15673","firefly reporter light, replicate 1":2.03e5,"firefly reporter light, replicate 2":2.19e5,"Renilla control light, replicate 1":2.63e6,"Renilla control light, replicate 2":2.43e6,"Outcome":"inactive"}
